In the DeepSol protein solubility set:

Experiment: soluble on expression in E. coli; label from the status in PepcDB or PDB records
For “AIAKIIVGIGGVTNGGKTTLTNKLINSLPNCCVVHQDDFFKPQDKIEVEDGFKQYDVITALDMEAMMSTIDGWQKDPAKFERSHGINNELDSEAPQDAEKREILHILIVEGFLLYTYKPLIDLFTKCYFLSVPYDECKRRRSSRNYTVPDPPGLFDGHVWPMYIKHKNIMEELTVNVEQLDGTNTREELFNRVYGDILDLINSKE”, the “soluble on expression in E. coli” value was “soluble”. In the case of “AMTAGTTTTFPMSNHTRERVTVAKLTLENFYSNLILQHEERETRQKKLEVAMEEEGLADEEKKLRRSQHARKETEFLRLKRTRLGLDDFESLKVIGRGAFGEVRLVQKKDTGHIYAMKILRKSDMLEKEQVAHIRAERDILVEADGAWVVKMFYSFQDKRNLYLIMEFLPGGDMMTLLMKKDTLTEEETQFYISETVLAIDAIHQLGFIHRDIKPDNLLLDAKGHVKLSDFGLCTGLKKAHRTEFYRNLTHNPPSDFSFQNMNSKRKAETWKKNRRQLAYSTVGTPDYIAPEVFMQTGYNKLCDWWSLGVIMYEMLIGYPPFCSETPQETYRKVMNWKETLVFPPEVPISEKAKDLILRFCIDSENRIGNSGVEEIKGHPFFEGVDWEHIRERPAAIPIEIKSIDDTSNFDDFPESDILQPVPNTTEPDYKSKDWVFLNYTYKRFEGLTQRGSIPTYMKAGKL”, the “soluble on expression in E. coli” value is reported as “soluble”. In the case of “GAMAEMDPVAEFPQPPGAARWAEVMARFAARLGAQGRRVVLVTSGGTKVPLEARPVRFLDNFSSGRRGATSAEAFLAAGYGVLFLYRARSAFPYAHRFPPQTWLSALRPSGPALSGLLSLEAEENALPGFAEALRSYQEAAAAGTFLVVEFTTLADYLHLLQAAAQALNPLGPSAMFYLAAAVSDFYVPVSEMPEHKIESSGGPLQITMKMVPKLLSPLVKDWAPKAFIISFKLETDPAIVINRARKALEIYQHQVVVANILESRQSFVLIVTKDSETKLLLSEEEIEKGVEIEEKIVDNLQSRHTAFIGDRN”, the “soluble on expression in E. coli” value is reported as “soluble”. For “GSMLSPKDILRKDLKLVHGYPMTCAFASNWEKIEQFHSRPDDIVIATYPKSGTTWVSEIIDMILNDGDIEKCKRGFITEKVPMLEMTLPGLRTSGIEQLEKNPSPRIVKTHLPTDLLPKSFWENNCKMIYLARNAKDVSVSYYHFDLMNNLQPFPGTWEEYLEKFLTGKVAYGSWFTHVKNWWKRKEEHPILFLYYEDMKENPKEEIKKIIRFLEKNLNDEILDRIIHHTSFEVMKDNPLVNYTHLPTTVMDHSKSPFMRKGTAGDWKNYFTVAQNEKFDAIYETEMSKTALQFRTEI”, the “soluble on expression in E. coli” value was “soluble”. In the case of “MASKNTSVVLGDHFQAFIDSQVADGRYGSASEVIRAGLRLLEENEAKLAALRAALIEGEESGFIEDFDFDAFIEERSRASAPQGFHEE”, the “soluble on expression in E. coli” value is reported as “soluble”. In the case of “MCNLYRMEDKDWVSKWAQDAESLINLMPAYQMNPDQMGPIVRNTADGKKQLVHARWGLPSPIFVQKKAAEARADKLKAKGKAFDINELIRMEPDRGVTNVRKLNLPHWTRWFGVEHRCLVPVTSFAEPDPASKQEGGNVPNAWFARDEAKSLMFFAGIHVPQWKSVRKVRDGLTTDDLYGFLTTDPNDLVKPIHEKAMPVLLLTREETEIWMRAPWDEAKHLARPLPNDALIILSREPYGSSIVSKSGESEEQGRLLAAALEHHHHHH”, the “soluble on expression in E. coli” value is reported as “soluble”. With “MENRALDPGTRDSYGATSHLPNKGALAKVKNNFKDLMSKLTEGQYVLCRWTDGLYYLGKIKRVSSSKQSCLVTFEDNSKYWVLWKDIQHAGVPGEEPKCNICLGKTSGPLNEILICGKCGLGYHQQCHIPIAGSADQPLLTPWFCRRCIFALAVRVSLPSSPVPASPASSSGADQRLPSQSLSSKQKGHTWALETDSASATVLGQDL” the “soluble on expression in E. coli” value was “soluble”. In the case of “MGSDKIHHHHHHMLRVTTLASSCTSFPLQVLRRRLTISSLTSFQPTTKTQVVVIGAGHAGCEAAAASSRTGAHTTLITPSLTDIGKCSCNPSIGGVGKGILVKEIDALDGLMGKVTDLAGVQFKMLNRSKGPAVWGPRAQIDRELYKKYMQRELSDKKAHPNLSLLQNKVADLILYDPGCGHKVIKGVVLDDGTQVGADQVIITTGTFLSAEIHIGDKRIAAGRIGEQPTYGISNTLQNEVGFQLGRLKTGTPARLAKESIDFSALEVQKGDALPVPMSFLNETVSVEPTKQLDCFGTHTTPQMHDFLRNNLHQSIHIQDTTIKGPRYCPSIEAKILRFPDRSSHKIWLEPEGFNSDVIYPNGISNSMPEDVQLQMMRLIPGMANVEILQPAYGVEYDYVDPRQLKPSLETKLVDGLFLAGQINGTTGYEEAAAQGIIAGINAGLLSRQEREQLVLKRSEAYIGVLIDDLINNGVIEPYRMFTSRSEFRISVRADNADFRLTPIGAQLGIISPVRLSQYSRDKHLYDETIRALQNFKLSSQKWSSLLQANIAPQAENRSAWEIFRFKDMDLHKLYECIPDLPINLLDIPMHVVTKINIQGKYEPYIVKQNQFVKAFQADENMLLPQDYDYRQLPTLSTECKLLLNRVQPLTIGQARRIQGITAAALFELYRVARSQANQSCKYPLIVSLYM”, the “soluble on expression in E. coli” value is reported as “not soluble”. With “MGSDKIHHHHHHMPAKLNSPSRYHGIYNAPHRAFLRSVGLTDEEIGKPLVAIATAWSEAGPCNFHTLALARVAKEGTKEAGLSPLAFPTMVVNDNIGMGSEGMRYSLVSRDLIADMVEAQFNAHAFDGLVGIGGCDKTTPGILMAMARLNVPSIYIYGGSAEPGYFMGKRLTIEDVHEAIGAYLAKRITENELYEIEKRAHPTLGTCSGLFTANTMGSMSEALGMALPGSASPTATSSRRVMYVKETGKALGSLIENGIKSREILTFEAFENAITTLMAMGGSTNAVLHLLAIAYEAGVKLTLDDFNRISKRTPYIASMKPGGDYVMADLDEVGGVPVVLKKLLDAGLLHGDVLTVTGKTMKQNLEQYKYPNVPHSHIVRDVKNPIKPRGGIVILKGSLAPEGAVIKVAATNVVKFEGKAKVYNSEDDAFKGVQSGEVSEGEVVIIRYEGPKGAPGMPEMLRVTAAIMGAGLNNVALVTDGRFSGATRGPMVGHVAPEAMVGGPIAIVEDGDTIVIDVESERLDLKLSEEEIKNRLKRWSPPSPRYKSGLLAKYASLVSQASMGAVTRPA” the “soluble on expression in E. coli” value was “not soluble”. For “MGSDKIHHHHHHMSQTTSIMEHDQLNSGIYCGKINHRRHTPKLHSFGYNIAMMAIDLDELPALTAVSKLFSTDKFTPLKFNPSDYLNSLKQQFGDQLMLSSASRGDDAGALKQRVLATIKHLGATQTCDKVIFSGQIRHFGFYFSPVNFYFCYHQNDMVYMLAEVSNTPWNERHCYLVDIANTAQTDKVFHVSPFMNLDMHYLWRITPPAKHLKVTIENRNANNDKLFDAGLVLKRQSINSSSIRRFMLNYPLMTSKIMLGIYWQAMKLFFKRIPFVSKQTIKAN”, the “soluble on expression in E. coli” value was “not soluble”. With “MNCDTAQPWMMSSYHPSTTSDVFWTTTPSSTSTTPSSDNGIQQYSSISTSSGYAPANSPAKTAEVNQLGGVFVNGRPLPFEMRCKIVELSRQGTRPCDISRQLKISHGCVSKILTRFSENGTIMPGTIGGSRPRVTTPKVVEYIRSLKRSDPGIFAWEIRDRLISADICDRANLPSVSSISRILRNKNGGNSSSSSSSQLRYIRDQLAEQQQQQHLQQHQYMEYNNNELNQISGNLDYQVSSSNTPPSYDSYHFIAN” the “soluble on expression in E. coli” value was “not soluble”. With “MPFKRTKVKLKKEIVTMGVDGIDPKRIVGTYVEPQQWNDLISDPDVVLVDTRNQYEVEIGTFKNAVNPATDTFREFPEYVKQNLDPQKHKKVAMFCTGGIRCEKSTAYLKEQGFEEVYHLKGGILKYLEEVPQLEHHHHHH” the “soluble on expression in E. coli” value was “not soluble”. For “MQKNIPSISCSPFPASRKIYQQSPLFSDVQVPLREISLTDGSAEKSLNIYDTSGPYTDNDIIIDITNGLPAISLPWLSKRADTEPYPARPVKPEDNGLLYDKTPPPAFKQKRPILRAKNGKAITQMAYARAGIITAEMEYVAIRENEGLTVKDQPKAQPDKICNGSIPEIYTAEFVRNEIACGRAIIPHNINHPECEPMIIGRNFRVKINANIGNSAVTSSMAEEVDKMVWAIRWGADTVMDLSTGRNIHNIREWIIRNSPVPIGTVPLYQALEKVQGIAENLTWDIFRDTLIEQAEQGVDYFTIHAGLRLPFIPLTIDRITGIVSRGGSIMAKWCLHHHKESFLYEHFDEICDIARTYDISLSLGDGLRPGSIADANDEAQFAELKTLGELTKVAWAKDVQVMIEGPGHVPMHKIKENMEQQLDLCHEAPFYTLGPLTTDIAPGYDHITSAIGAAMIGWFGTAMLCYVTPKEHLGLPDKNDVKTGVITYKIAAHAADLAKGLPRAQLRDNALSRARFDFRWYDQFNLSLDPETACAFHDETMPKEAHKLVHFCSMCGPKFCSMRISHDIRDTVHRKIKDEGMVAMAEKYQKNGDLYIDVSPPQKKIVNH”, the “soluble on expression in E. coli” value was “not soluble”. In the case of “MSDIQHQRMVTLCDDLKFLAVTDVYADLADAAAKQESSYIDYLEQVLKAENDVRQGRSRHTMAKLAGFPAIKTLEDYDFDFATGAPKQRILDLSAMAFLERRENVILLGPSGTGKTHLAIALGYRATQCGVKVRFISAADLMLQLESAQRQGRYKEVMRRSVLGPRLLIIDEIGYLPFSETQANLFFQVIAKRYETGSVILTSNLSFGEWEQAFGGNTALTSAMLDRLLHHAHVIQIRGDSYRLKEKRRAGILGQQLPTPQMDDLEHHHHHH”, the “soluble on expression in E. coli” value is reported as “soluble”. In the case of “MSGGLAPSKSTVYVSNLPFSLTNNDLYRIFSKYGKVVKVTIMKDKDTRKSKGVAFILFLDKDSAQNCTRAINNKQLFGRVIKASIAI”, the “soluble on expression in E. coli” value is reported as “soluble”. With “MSLATPGCREGETYDVVVLGAGPVGQNVADRARAGGLRVAVVERELVGGECSYWACVPSKALLRPVIAISDARRVDGAREAVDGSINTAGVFGRRNRYVAHWDDTGQADWVSGIGATLIRGDGRLDGPRRVVVTKSSGESVALTARHAVVICTGSRPALPDLPGITEARPWTNRQATDNSTVPDRLAIVGAGGVGVEMATAWQGLGASVTLLARGSGLLPRMEPFVGELIGRGLADAGVDVRVGVSVRALGRPNPTGPVVLELDDGTELRVDEVLFATGRAPRTDDIGLETIGLTPGSWLDVDDTCRVRAVDDGWLYAAGDVNHRALLTHQGKYQARIAGTAIGARAAGRPLDTTSWGMHATTADHHAVPQAFFTDPEAAAVGLTADQAAQAGHRIKAIDVEIGDVVMGAKLFADGYTGRARMVVDVDRGHLLGVTMVGPGAAELLHSATVAVAGQVPIDRLWHAVPCFPTISELWLRLLESYRDSFYLLVEGHHHHHH” the “soluble on expression in E. coli” value was “soluble”. For “MSLGDLKLWYKQPAGTWVEALPVGNSRMGAMVYGGTAREELQLNDETMWGGSPYRNDKPEALESLPQVRELIFAGKNMEAQNLIQENFYAGKHGMPYQTIGSLIIETPGHEKVTDYYRDLDLERAVATTRYKVDGVTFQREVFASFPDKVVVVRLTADRPGKLNFKVGYVSPLEHKVSRKGKKLVLTGKGRDHEGVKGLIRMETQTQADVDGGKVKIDDQNITVEGADSVTLYVSSGTNFINYHDISGNESKKASGYLSLALGRPYSQVLQEHIALYKEQFDRVRLDLGTSERAKLETVKRIELFNEGKDVSLAVLLFQYGRYLLISSSQPGGQPANLQGIWNNKLAAPWDGKYTININTEMNYWPAEVTNLSETHQPLFEMVKELSVTGRETARTMYGCNGWVAHHNTDIWRATGPVDKAFYGTWPMGGAWLTTHLWQHYLYSGDKLFLSEAYPALKGAADFYLDYLTEHPEYGWMVTAPSMSPEHGPSGEDTKKASTIVSGCTMDNQIIFDVLSNALHASRILKMSASYQDSLRSMLNRLAPMQIGKYNQLQEWLEDLDNPNDKHRHISHVYGLFPSNQISPYTHPLLFQAAKNTLLQRGDEATGWSIGWKVNLWARLLDGNHAFRIINNMLKLLPGDEVKEAYPQGRTYPNLFDAHPPFQIDGNFGYTAGVAEMLLQSHDGAVHLLPALPDAWATGSVQGLVARGGFVVDMNWNGVQLDKAKIHSRLGGNLRLRSYVPLRGVGLKEAKGKNPNEYYMQADIKEPLVSKEINPQYPALYKVYEYDLMTEQGQDYIVERGEGHHHHHH”, the “soluble on expression in E. coli” value was “soluble”.
